# The list shows a part of the results. The data scatter; read single values as rough.
# The chains behind the UniProt entries cited, without tags or fusion partners. Where a name states a change or a piece, a line headed by the entry shows the natural chain unless it says otherwise.
# UniProt Q9BY12: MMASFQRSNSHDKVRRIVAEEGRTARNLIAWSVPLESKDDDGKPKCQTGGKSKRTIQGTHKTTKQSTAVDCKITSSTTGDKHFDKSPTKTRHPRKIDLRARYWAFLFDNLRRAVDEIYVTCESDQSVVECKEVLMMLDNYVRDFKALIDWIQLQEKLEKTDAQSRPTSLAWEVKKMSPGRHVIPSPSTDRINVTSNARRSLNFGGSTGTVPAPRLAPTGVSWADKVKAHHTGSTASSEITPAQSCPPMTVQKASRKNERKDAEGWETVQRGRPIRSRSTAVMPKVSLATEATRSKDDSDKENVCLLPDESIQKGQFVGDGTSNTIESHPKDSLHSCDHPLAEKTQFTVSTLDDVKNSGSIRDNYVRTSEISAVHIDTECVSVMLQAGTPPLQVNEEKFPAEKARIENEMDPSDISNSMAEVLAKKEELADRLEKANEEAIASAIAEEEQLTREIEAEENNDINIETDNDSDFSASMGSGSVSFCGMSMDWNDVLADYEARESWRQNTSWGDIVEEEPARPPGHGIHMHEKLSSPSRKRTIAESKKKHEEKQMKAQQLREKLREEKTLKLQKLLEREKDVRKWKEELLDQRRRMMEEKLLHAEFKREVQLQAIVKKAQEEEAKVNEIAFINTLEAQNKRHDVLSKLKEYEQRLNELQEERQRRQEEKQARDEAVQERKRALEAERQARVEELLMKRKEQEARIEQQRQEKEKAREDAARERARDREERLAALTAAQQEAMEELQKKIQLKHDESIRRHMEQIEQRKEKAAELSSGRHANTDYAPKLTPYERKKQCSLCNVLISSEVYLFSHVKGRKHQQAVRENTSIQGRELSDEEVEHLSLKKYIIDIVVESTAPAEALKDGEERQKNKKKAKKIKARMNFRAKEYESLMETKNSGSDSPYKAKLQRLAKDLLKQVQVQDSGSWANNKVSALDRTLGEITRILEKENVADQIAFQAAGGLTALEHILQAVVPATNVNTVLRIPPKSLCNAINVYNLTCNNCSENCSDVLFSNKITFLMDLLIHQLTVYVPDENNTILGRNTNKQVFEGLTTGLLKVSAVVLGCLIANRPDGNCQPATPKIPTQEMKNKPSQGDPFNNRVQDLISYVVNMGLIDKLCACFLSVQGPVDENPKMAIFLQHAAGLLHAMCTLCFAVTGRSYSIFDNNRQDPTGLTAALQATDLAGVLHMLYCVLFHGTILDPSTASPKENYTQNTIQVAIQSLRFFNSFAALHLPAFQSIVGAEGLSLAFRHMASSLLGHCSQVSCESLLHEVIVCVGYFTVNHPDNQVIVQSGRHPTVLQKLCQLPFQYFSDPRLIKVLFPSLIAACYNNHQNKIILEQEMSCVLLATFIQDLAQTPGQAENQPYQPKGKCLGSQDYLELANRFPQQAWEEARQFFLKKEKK
# Target: T1, SCAPER C245 (UniProt Q9BY12)
# T1 sequence (whole entry): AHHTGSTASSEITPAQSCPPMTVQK
# Test: log2 mean competition ratio of IA-DTB cysteine labelling (DMSO/compound) (log2 ratio); higher = stronger cysteine engagement by compound
# Conditions: 50 µM; treatment time: 4 h; cell line lysate: HEK293T
# Description: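 IA-DTB competitive cysteine chemoproteomics in HEK293T RIPA lysate. Lysates were treated with compound 29 or 30 at 50 or 200 µM for 4 h, then IA-DTB (500 µM, 1 h), trypsin-digested, NeutrAvidin-enriched and analysed by diaPASEF. Competition ratio = intensity DMSO / intensity compound (n=4 treated, n=64 DMSO); binding: mean log2 CR ≥ 1 and p ≤ 0.05 plus QC filters. Target is the cysteine site.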
row,SMILES,log2 mean competition ratio
1,O=C(CCl)N[C@H]1CCCc2ccccc21,0.00451
2,O=C(CCl)N[C@@H]1CCCc2ccccc21,-0.0761

# Same assay, conditions: 200 µM; treatment time: 4 h; cell line lysate: HEK293T
row,SMILES,log2 mean competition ratio
1,O=C(CCl)N[C@H]1CCCc2ccccc21,-0.0792
2,O=C(CCl)N[C@@H]1CCCc2ccccc21,0.119

# Source: the supplement of paper PMC11732987, “Enantioselective OTUD7B fragment discovery through chemoproteomics screening and high-throughput optimisation” (Communications Chemistry, 2025)
